Source: PMC7307175
No constants are given. Whether binding was seen depends on the method and setting. Binding seen in cells or lysates may run through a third protein. Some binding calls cover weakened binding; strength is not graded here.

B1: double-stranded RNA (dsRNA)-dependent protein kinase R (PKR), P19525 1-551 (protein)
chain: MAGDLSAGFFMEELNTYRQKQGVVLKYQELPNSGPPHDRRFTFQVIIDGREFPEGEGRSKKEAKNAAAKLAVEILNKEKKAVSPLLLTTTNSSEGLSMGNYIGLINRIAQKKRLTVNYEQCASGVHGPEGFHYKCKMGQKEYSIGTGSTKQEAKQLAAKLAYLQILSEETSVKSDYLSSGSFATTCESQSNSLVTSTLASESSSEGDFSADTSEINSNSDSLNSSSLLMNGLRNNQRKAKRSLAPRFDLPDMKETKYTVDKRFGMDFKEIELIGSGGFGQVFKAKHRIDGKTYVIKRVKYNNEKAEREVKALAKLDHVNIVHYNGCWDGFDYDPETSDDSLESSDYDPENSKNSSRSKTKCLFIQMEFCDKGTLEQWIEKRRGEKLDKVLALELFEQITKGVDYIHSKKLIHRDLKPSNIFLVDTKQVKIGDFGLVTSLKNDGKRTRSKGTLRYMSPEQISSQDYGKEVDLYALGLILAELLHVCDTAFETSKFFTDLRDGIISDIFDKKEKTLLQKLLSKKPEDRPNTSEILRTLTVWKKSPEKNERHTC
B2: retinoic acid-inducible I (Rig-I), O95786 1-925 (protein)
chain: MTTEQRRSLQAFQDYIRKTLDPTYILSYMAPWFREEEVQYIQAEKNNKGPMEAATLFLKFLLELQEEGWFRGFLDALDHAGYSGLYEAIESWDFKKIEKLEEYRLLLKRLQPEFKTRIIPTDIISDLSECLINQECEEILQICSTKGMMAGAEKLVECLLRSDKENWPKTLKLALEKERNKFSELWIVEKGIKDVETEDLEDKMETSDIQIFYQEDPECQNLSENSCPPSEVSDTNLYSPFKPRNYQLELALPAMKGKNTIICAPTGCGKTFVSLLICEHHLKKFPQGQKGKVVFFANQIPVYEQQKSVFSKYFERHGYRVTGISGATAENVPVEQIVENNDIIILTPQILVNNLKKGTIPSLSIFTLMIFDECHNTSKQHPYNMIMFNYLDQKLGGSSGPLPQVIGLTASVGVGDAKNTDEALDYICKLCASLDASVIATVKHNLEELEQVVYKPQKFFRKVESRISDKFKYIIAQLMRDTESLAKRICKDLENLSQIQNREFGTQKYEQWIVTVQKACMVFQMPDKDEESRICKALFLYTSHLRKYNDALIISEHARMKDALDYLKDFFSNVRAAGFDEIEQDLTQRFEEKLQELESVSRDPSNENPKLEDLCFILQEEYHLNPETITILFVKTRALVDALKNWIEGNPKLSFLKPGILTGRGKTNQNTGMTLPAQKCILDAFKASGDHNILIATSVADEGIDIAQCNLVILYEYVGNVIKMIQTRGRGRARGSKCFLLTSNAGVIEKEQINMYKEKMMNDSILRLQTWDEAVFREKILHIQTHEKFIRDSQEKPKPVPDKENKKLLCRKCKALACYTADVRVIEECHYTVLGDAFKECFVSRPHPKPKQFSSFEKRAKIFCARQNCSHDWGIHVKYKTFEIPVIKIESFVVEDIATGVQTLYSKWKDFHFEKIPFDPAEMSK

Biological target: Ras-GAP SH3 domain binding protein 1 (G3BP1) (human (endogenous in HT1080)), Q13283
Experiment: co-IP
Conditions: remark: other sources report otherwise

Binder	binding
B1	binds
B2	binds
